This series can be described thus: Sensory evaluation of saltiness enhancing effect of salt coated with enzyme-treated naringin (Experiment 5). The class given is in vivo, human.

Consider `CC1O[C@@H](OC2C(O[C@H]3OC(CO)[C@@H](O)C(O)C3O)[C@H](O)C(CO)O[C@H]2Oc2cc(O)c3c(c2)OC(c2ccc(O)cc2)CC3=O)C(O)C(O)[C@H]1O` (stereo partly drawn) [3″-α-GN, 3″-α-monoglucosyl naringin], for which the Bitterness result reads like this: (all of the test samples from Experiment 5, including the test sample 15, sprayed as enzyme-treated naringin) “without showing bitterness”; (test sample 18 (3″-α-GN 3500 ppm), sprayed as enzyme-treated naringin) “strong bitterness”.
